From patent US9464255B2, “Maleinized ester derivatives” (Elevance Renewable Sciences, Inc., priority 2013, dated 2016)

Tested on: activated sludge (microbial inoculum)
Assay: Aerobic biodegradability in water containing mineral salts and activated sludge (CO2 evolution, DOC)
Method: A maleinized ester derivative in the form of hydrogenated 1-pentyl triester of maleinated-9-dodecene methyl ester (hereinafter the “test substance”) is evaluated for aerobic biodegradability in water containing mineral salts and activated sludge. The activated sludge is taken from a wastewater treatment plant and is used as a source of microbial inoculum. The objectives of the study are: 1) to evaluate the biodegradability (mineralization to CO2 production) potential of the test substance in an aerobic, aqueous medium; and 2) to determine the mineralization potential of a reference chemical in order to assess the viability of the test inoculum.
Approximately one liter of activated sludge is used as the microbial inoculum. The sludge is collected from the Columbia Wastewater Plant in Columbia, Miss. This plant treats predominately domestic sewage.
An aqueous mineral salts medium provides essential mineral nutrients and trace elements necessary to sustain the inoculum throughout the test period. The mineral salts medium is prepared by addition of reagent grade salts to reagent water. The mineral salts include salts of K, Na, NHa, Ca, Mg and Fe. The pH of the mineral salts medium is 7.27.
Each test system consists of a 5-L Pyrex carboy (reaction flask or vessel) containing a 3.0 L test solution volume comprised of mineral salts medium, prepared microbial inoculum, reagent water, and the appropriate test and/or reference substance additions. Outside air is passed through a pre-trap containing 500 mL of approximately 5 N KOH. The air is then passed through approximately 500 mL of reagent water to humidify the air, as well as to prevent contamination of the flasks from the KOH pre-trap. The CO2-free and humidified air is then passed through the reaction flasks.
The CO2-free air is introduced into each flask by positive pressure, and the flow rates (50-100 mL/minute) are measured and adjusted using flow meters. The outlet from each flask is connected to three CO2 absorber gas-washing traps in series, each filled with 100 mL of 0.2 N KOH solution. These traps capture the CO2 evolved from the reaction flasks. A magnetic stir bar is placed in each flask. The flasks are placed on insulated magnetic stir plates and stirred throughout the duration of the study. The test systems are kept in the dark (except for sampling and maintenance) in a temperature-controlled environmental chamber set at 22° C. Temperature of the chamber is continuously measured using a Rees Scientific temperature monitoring system.
The activated sludge is homogenized in a blender at a medium speed for two minutes. The homogenized sludge is allowed to settle for 30 to 60 minutes then filtered through glass wool. A volume of 30 mL of the filtrate is used as the inoculum for each reaction flask.
One day prior to dosing, six test systems are assembled. Each 5-L carboy receives 2,400 mL of mineral salts medium and 30 mL of the prepared activated sludge. Stirring and aeration with CO2-free air at approximately 90 mL/minute is started for each flask. The flasks are allowed to aerate overnight to purge the systems of CO2 before initiation of the test (dosing on Day 0).
Duplicate test substance systems are prepared by adding 570 mL of reagent water and approximately 42.2 mg (dosed gravimetrically) of the test substance to two of the 5-L carboys. The nominal concentration of carbon from the test substance in the final volume of 3,000 mL of solution is 10 mg C/L. […]

## O=C([O-])c1ccccc1.[Na+] [reference substance, sodium benzoate, reference compound]
Day 0
  corrected DOC concentration at study initiation: 21.0 mg C/L
Day 0 to Day 28
  DOC removal: 100%
Day 9, single system
  % ThCO2: 67.2%
Day 28
  corrected DOC concentration at termination: 0.00 mg C/L
Through Day 29, single system
  % ThCO2: 73.7%
